Test results from PubChem BioAssay AID493014 (National Center for Advancing Translational Sciences (NCATS), 2011).
Some of the results follow. These are further read-outs of the screen, such as a control signal, another cell line or another target. No call is given for them. Most of these compounds were active or inconclusive in the main read-out, so they are no random draw. Potencies come from curve fits of mixed quality, noted in brackets.

Experiment: qHTS Assay to Find Inhibitors of Chronic Active B-Cell Receptor Signaling
Details: ABC-DLBCL IkBa-CBG/CBR reporter, luminescence ratio (green luciferase fused to IkBa over red control in TMD8 lymphoma cells), 4 h
In short: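 Concentration-response series (up to 46 uM) were applied to TMD8 dual-reporter cells for 4 h at 37C with doxycycline. Green/red ratio, after filter-overlap correction, defined %Activity; red signal alone was normalised to basal cells and zero luminescence.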

[1] = measured here: CBR red luminescence, cell number
[2] = measured here: IkBa-CBG green luminescence

Brc1ccc(CSc2ccc(-c3ccco3)nn2)cc1
AC50 [1]: 6.31 µM [rising, partial curve, poor fit]

Cc1onc(-c2c(F)cccc2Cl)c1C(=O)Nc1sc2c(c1C#N)CCC(C(C)(C)C)C2 (stereo not drawn)
AC50 [1]: 2.31 µM [falling, full curve]
AC50 [2]: 20.6 µM [rising, partial curve, poor fit]

O=c1[nH]c(/C=C/c2ccc(OC(F)F)cc2)nc2c1cnn2-c1ccccc1
AC50 [1]: 2.82 µM [rising, full curve, poor fit]

O=C(CCSCc1ccccc1Cl)N1CCN(c2cccc(Cl)c2)CC1
AC50 [1]: 10 µM [rising, partial curve, poor fit]

C/C(Cn1nc([N+](=O)[O-])cc1C)=N\NC(=O)c1cccc(Br)c1
AC50 [1]: 20 µM [falling, single point]

O=C(NCCSc1ccccn1)c1ccc(Cl)cc1
AC50 [1]: 11.2 µM [falling, single point]

N#CCc1ccc(NC(=O)CSc2nnc(C3CC3)n2C2CC2)cc1
AC50 [1]: 1.64 µM [rising, partial curve, poor fit]

COC(=O)c1ccccc1NC(=O)N[C@@H](C)C(=O)OC
AC50 [1]: 0.92 µM [falling, full curve, poor fit]

O=C(Nc1ccncc1)Nc1ccc(F)cc1F
AC50 [1]: 11.6 µM [falling, partial curve]

O=C1C=C(NC2=CC3OC(c4ccccc4)OCC3OC2=O)CCC1 (stereo not drawn)
AC50 [1]: 8.2 µM [falling, partial curve]
AC50 [2]: 2.59 µM [rising, full curve, poor fit]

COc1ccccc1OCC(=O)Nc1ccccc1C(=O)NCc1cccnc1
AC50 [1]: 0.1 µM [rising, full curve, poor fit]

Cc1ccc(S(=O)(=O)N(CC(=O)Nc2ccccc2)C(=O)N2CCN(C)CC2)cc1
AC50 [1]: 4.11 µM [falling, partial curve, poor fit]

CC(=O)NC(CC(=O)NC1CCCCCC1)c1ccccc1 (stereo not drawn)
AC50 [1]: 8.2 µM [rising, partial curve, poor fit]

CCCCC#Cc1cncc(C(=O)N/N=C/c2ccccc2)c1
AC50 [1]: 17.8 µM [falling, partial curve, poor fit]

CC1CC1C(=O)Nc1nc(-c2ccccc2)cs1 (stereo not drawn)
AC50 [1]: 16.4 µM [falling, partial curve]

CCOc1ccc(-c2nn(-c3ccccc3)cc2/C=C2\SC(=S)N(C3CCS(=O)(=O)C3)C2=O)cc1 (stereo not drawn)
AC50 [1]: 7.31 µM [falling, single point]

Cc1nn(C)c(Cl)c1CN1CCN(CCC(C)C)C(CCO)C1 (stereo not drawn)
AC50 [1]: 35.5 µM [falling, single point]

COc1ccc(CCNC(=O)c2cccc(S(=O)(=O)N3CCOCC3)c2)cc1OC
AC50 [1]: 18.4 µM [rising, partial curve]

O=C(NC1CCCCC1)c1ccc(CS(=O)(=O)Cc2ccccc2F)o1
AC50 [1]: 18.4 µM [rising, partial curve]

O=C(O)c1ccc(N=c2oc3cc(O)ccc3cc2C(=O)NCc2ccccc2)cc1
AC50 [1]: 5.62 µM [falling, partial curve]

O=C(N/N=C/c1ccccc1O)C1SCCCS1
AC50 [1]: 35.5 µM [falling, single point]

O=C(Nc1nnc(Cc2ccccc2)s1)c1cnccn1
AC50 [1]: 0.794 µM [rising, full curve]

Nc1ncc(-c2ccccc2)c(-c2ccc(OCc3ccccc3)cc2O)n1
AC50 [1]: 11.2 µM [rising, single point]

COC(=O)c1ccc(Cn2cc(/C=C\[N+](=O)[O-])c3ccccc32)o1
AC50 [1]: 35.5 µM [rising, single point]
AC50 [2]: 35.5 µM [falling, single point]

COC(=O)c1sccc1NC(=O)CSc1nnnn1-c1ccccc1C
AC50 [1]: 0.00461 µM [falling, full curve, poor fit]

CCOC(=O)c1sc(-c2ccc(C(F)(F)F)cc2)nc1O
AC50 [1]: 7.94 µM [rising, partial curve]

NC(=O)CSc1nc(-c2ccccc2Cl)ns1
AC50 [1]: 29.1 µM [rising, single point]

O=C(NC(=S)Nc1cccc(CO)c1)c1ccc(-c2ccccc2)cc1
AC50 [1]: 23.1 µM [falling, partial curve, poor fit]

COc1cc2c(cc1OC)C(c1cc(C)ccc1C)CC(=O)N2 (stereo not drawn)
AC50 [2]: 12.6 µM [falling, partial curve, poor fit]

CC1CCCN(C(=O)c2ccc3c(=O)n(C4CCCC4)c(=S)[nH]c3c2)C1 (stereo not drawn)
AC50 [1]: 35.5 µM [falling, single point]

CC1CN(C(=O)Nc2cccc(C(F)(F)F)c2)CC(C)O1 (stereo not drawn)
AC50 [1]: 12.6 µM [rising, single point]

Cc1cc(NC(=O)c2ccccc2Cl)no1
AC50 [1]: 4.47 µM [falling, partial curve, poor fit]

COc1ccc(C(=O)Nc2nc(C)c(C)s2)cc1OC
AC50 [1]: 22.4 µM [falling, single point]

CC(C)(C)c1cc(-c2ccccc2)no1
AC50 [1]: 2.82 µM [rising, full curve, poor fit]

CC1CCCN(C(=O)CSCC(=O)Nc2nc(-c3cccs3)cs2)C1 (stereo not drawn)
AC50 [1]: 9.2 µM [falling, partial curve, poor fit]

O=C(CSc1ncnc2ccccc12)Nc1cccc(S(=O)(=O)N2CCCC2)c1
AC50 [1]: 3.98 µM [falling, single point]

CCOC(=O)Cc1nnc(NC(=O)C(CC)Sc2nc(C)cc(C)n2)s1 (stereo not drawn)
AC50 [1]: 14.6 µM [rising, single point]

CSc1cc(-c2ccncc2)nc(-c2ccc(Cl)cc2)c1
AC50 [1]: 6.31 µM [rising, single point]

CCOc1ccc(Br)cc1S(=O)(=O)Nc1ccc(Cl)c(S(=O)(=O)N(C)C)c1
AC50 [1]: 6.51 µM [rising, partial curve, poor fit]

N/C(=N\OC(=O)c1cccc2ccccc12)c1ccccn1
AC50 [1]: 7.94 µM [falling, partial curve, poor fit]

CCOC(=O)c1c(-c2ccc3ccccc3c2)csc1NC(=O)CCCC(=O)O
AC50 [1]: 7.31 µM [falling, partial curve]

CCn1cc(C(=O)O)c(=O)c2cnc(N3CCN(C(=S)NC(=O)c4ccccc4Cl)CC3)nc21
AC50 [1]: 0.891 µM [rising, full curve, poor fit]

S=c1nc(-c2ccccc2)[nH]c2ccc(Br)cc12
AC50 [1]: 0.282 µM [rising, full curve, poor fit]

CCCc1ccc(OCc2ccc(C(=O)NCc3cccnc3)o2)c(OC)c1
AC50 [1]: 7.08 µM [falling, full curve, poor fit]

Cc1ccc(C(=O)Nc2ccccc2C(=O)NC(Cc2c[nH]c3ccccc23)C(=O)O)cc1 (stereo not drawn)
AC50 [1]: 22.4 µM [falling, single point]

CC(C)C(=O)Nc1ccc(NC(=O)c2cc3ccccc3o2)cc1
AC50 [1]: 11.6 µM [rising, partial curve]

Cc1cc(OCC(=O)Nc2ccccc2C)no1
AC50 [1]: 29.1 µM [falling, single point]

S=C(Nc1ccc(N2CCOCC2)cc1)Nc1ccc2nc(-c3ccco3)c(-c3ccco3)nc2c1
AC50 [1]: 29.1 µM [rising, single point]

NC(N)=Nc1nc2ccc([N+](=O)[O-])cc2[nH]1
AC50 [1]: 5.62 µM [rising, single point]

COc1cc(C#Cc2c(-c3cncn3C)n(C)c3ccc(-c4cc(OC)c(OC)c(OC)c4)cc23)cc(OC)c1
AC50 [1]: 18.4 µM [falling, single point]

Oc1c(N=NC(=S)Nc2ccccc2F)c2ccccc2n1Cc1ccccc1F
AC50 [1]: 14.1 µM [falling, partial curve, poor fit]

COc1cc2c(C#Cc3cccnc3)c(-c3ccsc3)oc(=O)c2cc1OC
AC50 [1]: 1.64 µM [rising, partial curve, poor fit]

Cc1ccc(N=Nc2c(N)nn3c(C)cc(C)nc23)cc1
AC50 [1]: 29.1 µM [rising, single point]

N#C/C(=C\c1ccc(N2CCOCC2)o1)C(=O)Nc1ccc(O)cc1
AC50 [1]: 0.891 µM [falling, full curve]

C=CCNC(=S)N/N=C/c1ccc(C(C)(C)C)cc1
AC50 [2]: 10 µM [falling, partial curve]

Cc1cccc(OCc2nc3ccccc3n2C)c1
AC50 [1]: 2.82 µM [rising, partial curve, poor fit]

COC(=O)CC1=NN(c2nc3ccccc3s2)C(=O)/C1=C/N(C)C
AC50 [1]: 1.78 µM [falling, partial curve]

CCNC(=S)Nc1cccc(NC(=O)c2ccccc2O)c1
AC50 [1]: 35.5 µM [falling, single point]

CCCCSCc1cc(C(=O)O)oc1C(C)(C)C
AC50 [1]: 15.8 µM [rising, single point]

N#Cc1c(NCCCO)nc(NCc2ccccc2)c2c1CCN(Cc1ccccc1)C2
AC50 [1]: 6.31 µM [rising, single point]

O=C(Nc1ccc(-c2nc3ccccc3[nH]2)cc1)c1c(F)c(F)c(F)c(F)c1F
AC50 [1]: 15.8 µM [falling, single point]

CC1CCN(c2nc(/C=C/c3ccccc3)nc3ccccc23)CC1
AC50 [1]: 20.6 µM [rising, partial curve, poor fit]

Cc1ccc(O)c(-c2cc(C(F)(F)F)[nH]n2)c1
AC50 [1]: 20 µM [rising, single point]

O=C(c1ccccn1)C1CCCN(Cc2cn[nH]c2-c2cc3ccccc3o2)C1 (stereo not drawn)
AC50 [1]: 15.8 µM [falling, partial curve, poor fit]

Cc1cc(Nc2sc(C(=O)c3ccc(F)cc3)c(N)c2C(=O)Nc2ccc(F)cc2)ccc1Cl
AC50 [1]: 35.5 µM [falling, single point]
